Results published in the supplement of paper PMC7661543.
± gives the standard deviation of the averaged measurements. The effect of the compound repeats well; differences between the knockouts mostly do not.

Test system: ZR-75-1
Experiment: relative cell number vs DMSO control (72 h) (% of DMSO); higher = less growth inhibition (more cells)
Method: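 QMAP-Seq: a pool of 5 breast cancer cell lines (ZR-75-1, SKBR3, HCC-38, MDA-MB-231, BT-20), each carrying 12 doxycycline-inducible Cas9 sgRNA perturbations (11 knockouts plus non-targeting sgNT), was treated with compounds for 72 h at four 10-fold doses (10 nM-10 uM or 1 nM-1 uM range). Barcodes were amplified and sequenced, and cell number was interpolated from 293T spike-in standard curves. The result is expressed as % of the median of DMSO wells. Two biological replicates.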

[1] = sgRNA knockout: sgATF3, 1000 nM
[2] = sgRNA knockout: sgATF3, 10000 nM
[3] = sgRNA knockout: sgATF4, 1000 nM
[4] = sgRNA knockout: sgATF4, 10000 nM
[5] = sgRNA knockout: sgATF6, 1000 nM
[6] = sgRNA knockout: sgATF6, 10000 nM
[7] = sgRNA knockout: sgATG7, 1000 nM
[8] = sgRNA knockout: sgATG7, 10000 nM
[9] = sgRNA knockout: sgERN1, 1000 nM
[10] = sgRNA knockout: sgERN1, 10000 nM
[11] = sgRNA knockout: sgHSF2, 1000 nM
[12] = sgRNA knockout: sgHSF2, 10000 nM
[13] = sgRNA knockout: sgNFE2L2, 10 nM
[14] = sgRNA knockout: sgNFE2L2, 100 nM
[15] = sgRNA knockout: sgNFE2L2, 1000 nM
[16] = sgRNA knockout: sgNFE2L2, 10000 nM
[17] = sgRNA knockout: sgSLC35F2, 10 nM
[18] = sgRNA knockout: sgSLC35F2, 100 nM
[19] = sgRNA knockout: sgSLC35F2, 1000 nM
[20] = sgRNA knockout: sgSLC35F2, 10000 nM
[21] = sgRNA knockout: sgXBP1, 1000 nM
[22] = sgRNA knockout: sgXBP1, 10000 nM

In the case of `CC(C)C[C@H](NC(=O)CNC(=O)c1cc(Cl)ccc1Cl)B(O)O` [MLN2238], the relative cell number (sgRNA knockout: sgATF3, 10 nM) is reported as 156 ± 11, the relative cell number (sgRNA knockout: sgATF3, 100 nM) is reported as 76.1 ± 2 and the relative cell number [1] is reported as 38.1 ± 12. It also gave a relative cell number [2] of 18.2 ± 4.6, a relative cell number (sgRNA knockout: sgATF4, 10 nM) of 84.1 ± 14 and a relative cell number (sgRNA knockout: sgATF4, 100 nM) of 93.9 ± 29. It also gave a relative cell number [3] of 33.7 ± 2.2, a relative cell number [4] of 13.7 ± 7.5 and a relative cell number (sgRNA knockout: sgATF6, 10 nM) of 72.2 ± 12. It also gave a relative cell number (sgRNA knockout: sgATF6, 100 nM) of 73.1 ± 29, a relative cell number [5] of 32.5 ± 14 and a relative cell number [6] of 13.2 ± 7.5. For the same molecule, the relative cell number (sgRNA knockout: sgATG7, 10 nM) was 138 ± 12, the relative cell number (sgRNA knockout: sgATG7, 100 nM) was 113 ± 40 and the relative cell number [7] was 45 ± 11. The relative cell number [8] was 7.77 ± 0.67, the relative cell number (sgRNA knockout: sgERN1, 10 nM) was 112 ± 16 and the relative cell number (sgRNA knockout: sgERN1, 100 nM) was 108 ± 7.4. For the same molecule, the relative cell number [9] was 46.7 ± 5.3, the relative cell number [10] was 13.1 ± 3.4 and the relative cell number (sgRNA knockout: sgHSF2, 10 nM) was 145 ± 26. For the same molecule, the relative cell number (sgRNA knockout: sgHSF2, 100 nM) was 99.3 ± 9.2, the relative cell number [11] was 37.9 ± 1.3 and the relative cell number [12] was 12 ± 1.8. It also gave a relative cell number [13] of 97.1 ± 18, a relative cell number [14] of 55.8 ± 7.3 and a relative cell number [15] of 21.7 ± 7.6. The relative cell number [16] was 10.2 ± 2.8, the relative cell number [17] was 92 ± 35 and the relative cell number [18] was 99.1 ± 58. It also gave a relative cell number [19] of 16.1 ± 12, a relative cell number [20] of 10.4 ± 1.4 and a relative cell number (sgRNA knockout: sgXBP1, 10 nM) of 95.3 ± 8.2. The relative cell number (sgRNA knockout: sgXBP1, 100 nM) was 71.9 ± 17, the relative cell number [21] was 35.2 ± 7.8 and the relative cell number [22] was 10.4 ± 5.5.

`COc1cc(-n2c(=S)[nH]c3ccccc3c2=O)c(Cl)cc1Cl` [Mdivi1] was tested, and the relative cell number (sgRNA knockout: sgATF3, 10 nM) was 108 ± 19, the relative cell number (sgRNA knockout: sgATF3, 100 nM) was 71.7 ± 12 and the relative cell number [1] was 90.4 ± 28. For the same molecule, the relative cell number [2] was 68.7 ± 8.2, the relative cell number (sgRNA knockout: sgATF4, 10 nM) was 55.2 ± 3.4 and the relative cell number (sgRNA knockout: sgATF4, 100 nM) was 98.5 ± 27. It also gave a relative cell number [3] of 78.4 ± 3.8, a relative cell number [4] of 51.8 ± 3.9 and a relative cell number (sgRNA knockout: sgATF6, 10 nM) of 68.3 ± 8.2. It also gave a relative cell number (sgRNA knockout: sgATF6, 100 nM) of 113 ± 63, a relative cell number [5] of 90.8 ± 2.5 and a relative cell number [6] of 38.3 ± 11. It also gave a relative cell number (sgRNA knockout: sgATG7, 10 nM) of 99.1 ± 5.1, a relative cell number (sgRNA knockout: sgATG7, 100 nM) of 105 ± 67 and a relative cell number [7] of 102 ± 11. For the same molecule, the relative cell number [8] was 39.4 ± 3, the relative cell number (sgRNA knockout: sgERN1, 10 nM) was 82.6 ± 4.8 and the relative cell number (sgRNA knockout: sgERN1, 100 nM) was 92.77 ± 0.29. It also gave a relative cell number [9] of 68 ± 16, a relative cell number [10] of 48.4 ± 15 and a relative cell number (sgRNA knockout: sgHSF2, 10 nM) of 96.9 ± 5.1. For the same molecule, the relative cell number (sgRNA knockout: sgHSF2, 100 nM) was 98.4 ± 15, the relative cell number [11] was 77.6 ± 32 and the relative cell number [12] was 51.4 ± 2.9. It also gave a relative cell number [13] of 98.4 ± 12, a relative cell number [14] of 89 ± 6.3 and a relative cell number [15] of 73 ± 1.6. The relative cell number [16] was 58.1 ± 21, the relative cell number [17] was 37.9 ± 19 and the relative cell number [18] was 81.3 ± 33. For the same molecule, the relative cell number [19] was 56.1 ± 23, the relative cell number [20] was 33.7 ± 16 and the relative cell number (sgRNA knockout: sgXBP1, 10 nM) was 100 ± 23. For the same molecule, the relative cell number (sgRNA knockout: sgXBP1, 100 nM) was 97.3 ± 3.7, the relative cell number [21] was 78 ± 5.3 and the relative cell number [22] was 55.9 ± 13.

For `O=C1c2c(O)ccc(O)c2C(=O)c2c(NCCNCCO)ccc(NCCNCCO)c21` [Mitoxantrone], the relative cell number (sgRNA knockout: sgATF3, 10 nM) was 55.3 ± 2.5, the relative cell number (sgRNA knockout: sgATF3, 100 nM) was 28.9 ± 2.2 and the relative cell number [1] was 14.3 ± 4.5. The relative cell number [2] was 9.41 ± 7.9, the relative cell number (sgRNA knockout: sgATF4, 10 nM) was 66.4 ± 9.3 and the relative cell number (sgRNA knockout: sgATF4, 100 nM) was 40.8 ± 8.6. The relative cell number [3] was 11.7 ± 4.9, the relative cell number [4] was 6.91 ± 2.7 and the relative cell number (sgRNA knockout: sgATF6, 10 nM) was 34.1 ± 11. For the same molecule, the relative cell number (sgRNA knockout: sgATF6, 100 nM) was 16.7 ± 5.5, the relative cell number [5] was 6.77 ± 1.6 and the relative cell number [6] was 5.08 ± 2.6. For the same molecule, the relative cell number (sgRNA knockout: sgATG7, 10 nM) was 45.2 ± 7.9, the relative cell number (sgRNA knockout: sgATG7, 100 nM) was 30.2 ± 13 and the relative cell number [7] was 10.5 ± 3.8. It also gave a relative cell number [8] of 7.58 ± 4.8, a relative cell number (sgRNA knockout: sgERN1, 10 nM) of 47.6 ± 14 and a relative cell number (sgRNA knockout: sgERN1, 100 nM) of 27 ± 1.2. The relative cell number [9] was 14.3 ± 2.1, the relative cell number [10] was 8.85 ± 3.9 and the relative cell number (sgRNA knockout: sgHSF2, 10 nM) was 46.1 ± 0.56. It also gave a relative cell number (sgRNA knockout: sgHSF2, 100 nM) of 29.1 ± 8.3, a relative cell number [11] of 9.77 ± 3 and a relative cell number [12] of 5.48 ± 1.5. The relative cell number [13] was 45.3 ± 14, the relative cell number [14] was 27.2 ± 2.4 and the relative cell number [15] was 11.3 ± 4.3. For the same molecule, the relative cell number [16] was 7.38 ± 3.9, the relative cell number [17] was 46.2 ± 10 and the relative cell number [18] was 18.8 ± 11. It also gave a relative cell number [19] of 9.14 ± 1.6, a relative cell number [20] of 4 ± 2 and a relative cell number (sgRNA knockout: sgXBP1, 10 nM) of 48 ± 6.5. For the same molecule, the relative cell number (sgRNA knockout: sgXBP1, 100 nM) was 32.8 ± 3.5, the relative cell number [21] was 10.2 ± 0.91 and the relative cell number [22] was 7.95 ± 2.5.
